The supplement of paper PMC11409438
Counter-ions that a name gives are not always drawn. The list shows a part of the results. Many values rest on one well or one pass, so single values are uncertain.

These compounds were tested on Caenorhabditis elegans ST65 (ncIs13[ajm-1::GFP]) (assay: 'Larvae/adult' ratio (MetaXpress pharynx counts; minimum value 1, so it appears to include adults; growth inhibition read-out)). Conditions: 10 µM; exposure time: 4-5 days from L1 at 20°C.

SMILES	'Larvae/adult' ratio
CNC(=O)c1ccc(N2C(=S)N(c3cnc(C#N)c(C(F)(F)F)c3)C(=O)C23CCC3)cc1F	2.17
CC[C@@H]1C(=O)OC[C@@H]1Cc1cncn1C [Pilocarpine HCl]	1.8
O=C(/C=C\n1cnc(-c2cc(C(F)(F)F)cc(C(F)(F)F)c2)n1)NNc1cnccn1 [Selinexor (KPT-330)]	1.87
C=CC[C@@H]1/C=C(\C)C[C@H](C)C[C@H](OC)[C@H]2O[C@@](O)(C(=O)C(=O)N3CCCC[C@H]3C(=O)O[C@H](/C(C)=C/[C@@H]3CC[C@@H](O)[C@H](OC)C3)[C@H](C)[C@@H](O)CC1=O)[C@H](C)C[C@@H]2OC [Tacrolimus (FK506)]	1.86
CO[C@H]1C[C@@H]2CC[C@@H](C)[C@@](O)(O2)C(=O)C(=O)N2CCCC[C@H]2C(=O)O[C@H]([C@H](C)C[C@@H]2CC[C@@H](OCCO)[C@H](OC)C2)CC(=O)[C@H](C)/C=C(\C)[C@@H](O)[C@@H](OC)C(=O)[C@H](C)C[C@H](C)/C=C/C=C/C=C/1C [Everolimus (RAD001)]	2
C#Cc1cccc(Nc2ncnc3cc(OCCOC)c(OCCOC)cc23)c1 [Erlotinib]	1.69
Nc1nc(NC2CC2)cc(-c2cccc(Cl)c2Cl)n1	6.5
CC(=O)N(O)CCCCCNC(=O)CCC(=O)N(O)CCCCCNC(=O)CCC(=O)N(O)CCCCCN [Deferoxamine mesylate]	2.29
COC[C@H](NC(=O)c1cnc(C)s1)C(=O)N[C@@H](COC)C(=O)N[C@@H](Cc1ccccc1)C(=O)[C@@]1(C)CO1 [Oprozomib (ONX 0912)]	2.69
Cn1cnc2c(F)c(Nc3ccc(Br)cc3Cl)c(C(=O)NOCCO)cc21 [Selumetinib (AZD6244)]	2.41
CC1=C(/C=C/C(C)=C/C=C/C(C)=C/C(=O)O)C(C)(C)CCC1 [Tretinoin]	3.25
CCN(CC)Cc1ccc2cc(COC(=O)Nc3ccc(C(=O)NO)cc3)ccc2c1 [Givinostat (ITF2357)]	1.74
CC[C@]1(O)C[C@@H]2CN(CCc3c([nH]c4ccccc34)[C@@](C(=O)OC)(c3cc4c(cc3OC)N(C)[C@H]3[C@@](O)(C(=O)OC)[C@H](OC(C)=O)[C@]5(CC)C=CCN6CC[C@]43[C@@H]65)C2)C1 [Vinblastine sulfate]	1.82
C[C@@H]1CCN(C(=O)CC#N)C[C@@H]1N(C)c1ncnc2[nH]ccc12	1.65
Cc1ncc(Cl)cc1NCc1ccc(C(=O)N[C@@H](CC2CCCC2)C(=O)NC2CC2)s1	4.86
CNc1ncc2cc(-c3cc(NC(=O)NCCC(C)(C)C)c(F)cc3C)c(C)nc2n1	3
Cc1c(Cn2c(C)nc3c(C(=O)O)cc(N4CCOCC4)cc32)cccc1C(F)(F)F	2.61
COc1cc2c(Oc3ccc4[nH]c(C)cc4c3F)ncnc2cc1OCCCN1CCCC1 [Cediranib (AZD2171)]	1.68
O=c1[nH]c(=O)n([C@H]2C[C@H](O)[C@@H](CO)O2)cc1C(F)(F)F [Trifluridine]	1.58

Given bar-delimited: part of the list above
SMILES | 'Larvae/adult' ratio
O=C(/C=C\n1cnc(-c2cc(C(F)(F)F)cc(C(F)(F)F)c2)n1)NNc1cnccn1 [Selinexor (KPT-330)] | 1.87
CC[C@]1(O)C[C@@H]2CN(CCc3c([nH]c4ccccc34)[C@@](C(=O)OC)(c3cc4c(cc3OC)N(C)[C@H]3[C@@](O)(C(=O)OC)[C@H](OC(C)=O)[C@]5(CC)C=CCN6CC[C@]43[C@@H]65)C2)C1 [Vinblastine sulfate] | 1.82

Carrying on.

SMILES	'Larvae/adult' ratio
CC(C)(C)c1cc(NC(=O)Nc2ccc(Oc3ccnc4[nH]c(=O)cnc34)cc2F)n(-c2ccccc2)n1	2.47
CC(=O)c1cc2c(o1)C(=O)c1ccccc1C2=O [Napabucasin]	1.74
O=C(Nc1nc2cccc(-c3ccc(CN4CCS(=O)(=O)CC4)cc3)n2n1)C1CC1 [Filgotinib (GLPG0634)]	2.17
CCc1nc(C(N)=O)c(Nc2ccc(N3CCC(N4CCN(C)CC4)CC3)c(OC)c2)nc1NC1CCOCC1 [Gilteritinib (ASP2215)]	2.17
COc1cc(C(=O)O)ccc1NC(=O)[C@@H]1N[C@@H](CC(C)(C)C)[C@](C#N)(c2ccc(Cl)cc2F)[C@H]1c1cccc(Cl)c1F [Idasanutlin (RG-7388)]	1.68
CC(=O)O[C@H]1C(=O)[C@@]2(C)[C@H]([C@H](OC(=O)c3ccccc3)[C@]3(O)C[C@H](OC(=O)[C@H](O)[C@@H](NC(=O)c4ccccc4)c4ccccc4)C(C)=C1C3(C)C)[C@]1(OC(C)=O)CO[C@@H]1C[C@@H]2O [Paclitaxel]	1.78
Cc1cc(Nc2cc(N3CCN(C)CC3)nc(Sc3ccc(NC(=O)C4CC4)cc3)n2)n[nH]1 [Tozasertib (VX-680, MK-0457)]	2.33
CNC(=O)c1ccc(C)c(-n2c(C)cc(OCc3ccc(F)cc3F)c(Br)c2=O)c1	2.51
NC[C@@](O)(c1ccc(Cl)cc1)c1ccc(-c2cn[nH]c2)cc1	2.23
CC[C@H](Nc1ncnc2[nH]cnc12)c1nc2cccc(F)c2c(=O)n1-c1ccccc1 [Idelalisib (CAL-101, GS-1101)]	2.3
CC(C)(O)CC(=O)NCCn1ccc2ncnc(Nc3ccc(Oc4cccc(C(F)(F)F)c4)c(Cl)c3)c21	1.9
Cc1cc(-c2ncc(CC(=O)Nc3ccc(-c4cnccn4)cn3)cc2C)ccn1	2.7
COC(=O)c1ccc2c(c1)[nH]c1ncnc(NCCCN3CCCCC3)c12	2.17
COc1ccc(S(=O)(=O)Nc2cccnc2Nc2ccc(O)cc2)cc1	1.52
CC/C(=C(\c1ccc(O)cc1)c1ccc(OCCN(C)C)cc1)c1ccccc1 [4-Hydroxytamoxifen]	5.43
CCn1cc(-c2ccnc3[nH]c(-c4cccc(CN(C)C)c4)cc23)c(-c2ccc(NC(=O)N(C)C)cc2)n1	1.76
Cc1ncc(-c2ccnc(Nc3ccc(S(C)(=O)=O)cc3)n2)n1C(C)C	5.08
COc1nc(N)nc2c1ncn2[C@@H]1O[C@H](CO)[C@@H](O)[C@@H]1O [Nelarabine]	2.22
C[C@]12C=CC(=O)C=C1CC[C@@H]1[C@@H]2[C@@H](O)C[C@@]2(C)[C@H]1CC[C@]2(O)C(=O)CO [Prednisolone]	1.71
